# Data: publication PMC12040169 (PLOS Biology, 2025)
# The other results are listed elsewhere or left out.
# Test system: T1, CTL2-GFP (C. trachomatis L2/434/Bu, GFP-expressing)
# T1 construct: L2/434/Bu, GFP-expressing
# Parameters: species or system HeLa; Intracellular C. trachomatis growth in HeLa cells, bulk GFP fluorescence relative to DMSO
# Details: bulk GFP, single well; 28.5 h, 10 µM; inhibitor
row,Structure (SMILES),% of control remaining [%]
1,Cc1oc2ncn(Cc3ccccc3)c(=N)c2c1C [CBK288160],117.167
2,O=C(Nc1cccc(Cl)c1)c1cccc(NC(=O)c2ccccc2C(=O)O)c1 [CBK287122],136.152
3,O=C(Nc1ccc(F)cc1)c1ccc(NS(=O)(=O)c2ccc(Br)cc2)cc1 [CBK050400],49.2858
4,COCc1cccc(-c2ncc(OCCN3CCCC3=O)nc2NC(C)=O)c1 [CBK145239],118.169
5,CCC1(CC)CCN(C(=O)CCn2ccc3ccncc32)C1 [CBK285176],118.809
6,Cn1ccnc1C1(O)CC2CCC(C1)N2C(=O)c1c(F)cccc1F (stereo not shown) [CBK284092],108.422
7,CN1C(=O)c2ccccc2OCCCCC[C@H]2[C@@H]1CCCN2C(=O)c1ccccc1Cn1cncn1 [CBK292114],70.9071
8,Cc1csc(C(Cc2ccsc2)NCc2cccnc2)n1 (stereo not shown) [CBK285020],106.634
9,COc1ccc2cc([C@@H](O)C[C@@H](C)O)c(Cl)nc2c1 [CBK022146],136.267
10,O=C(O)[C@H]1Nc2ccc(Br)cc2[C@H]2[C@H](O)[C@H](O)C[C@H]21 [CBK303242],74.5089
11,CC(C)OC(=O)[C@@H]1CCN(C(=O)CCC2NC(=O)NC2=O)[C@@H]1c1ccc(F)cc1 (stereo partly shown) [CBK285520],86.2752
12,Cn1nccc1NS(=O)(=O)c1ccc(-c2cnco2)s1 [CBK062088],63.5759
13,O=C(O)Cc1ccc(OCC(=O)NCc2ccc(Cl)cc2Cl)cc1 [CBK296628],84.028
14,O=C(CCc1c[nH]c2ccccc12)Nc1ccccc1C(=O)O [CBK287242],112.604
15,CNCC(=O)N1CCN(C(=O)c2ccc(Cl)cc2Cl)CC1 [CBK029576],100
16,CC(C)Cn1c(=O)[nH]c2ncc(-c3ccc(O)cc3)nc21 [CBK065011],78.7063
17,O=C(O)C1CCCN(C(=O)Cc2csc(COc3ccc(Cl)cc3)n2)C1 (stereo not shown) [CBK304501],159.664
18,O=S(=O)(Nc1nc(-c2ccccc2Cl)cs1)c1sc(Cl)cc1Br [CBK200028],110.531
19,CN(C1CCCCC1)S(=O)(=O)NCCc1cn2ccccc2n1 [CBK305576],91.364
20,COc1ccnc(N2CCN(C(=O)c3cc(C)nn3C)CC2)n1 [CBK305967],126.515
21,COc1ccc(CCNc2ncnc3[nH]cnc23)cc1OC [CBK134342],157.498
22,Cc1cc(NC(=O)C2CCN(C(=O)c3c(F)cccc3F)CC2)no1 [CBK304359],91.0455

# 2 compounds picked at random from those above:
row,Structure (SMILES),% of control remaining [%]
22,Cc1cc(NC(=O)C2CCN(C(=O)c3c(F)cccc3F)CC2)no1 [CBK304359],91.0455
13,O=C(O)Cc1ccc(OCC(=O)NCc2ccc(Cl)cc2Cl)cc1 [CBK296628],84.028
